The target of test [1] is T1, HA-FBXL8 (full-length human Fbxl8 with HA-tag) (human) (UniProt Q96CD0).
T1 sequence: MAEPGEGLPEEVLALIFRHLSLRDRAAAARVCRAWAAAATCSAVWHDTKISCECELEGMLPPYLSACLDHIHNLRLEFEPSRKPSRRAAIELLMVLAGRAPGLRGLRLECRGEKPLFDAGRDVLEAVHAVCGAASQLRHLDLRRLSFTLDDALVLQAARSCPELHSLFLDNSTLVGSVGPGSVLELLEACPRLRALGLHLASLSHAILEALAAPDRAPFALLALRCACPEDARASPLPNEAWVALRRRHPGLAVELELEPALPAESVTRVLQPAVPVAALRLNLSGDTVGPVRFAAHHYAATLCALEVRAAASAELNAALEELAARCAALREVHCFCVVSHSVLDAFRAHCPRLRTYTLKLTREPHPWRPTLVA
The test can be described thus: co-IP; HEK293T cells transiently transfected with HA-FBXL8 and Flag-Snail1, 48 h; lysates precleared with Protein A/G-agarose, incubated with anti-Flag or anti-HA antibody (control IgG) at 4 °C overnight; immunoblot. For orientation: Immunoblotting shows a protein as a band on a membrane.

Sequences of proteins named here, by UniProt entry; tags and fusion partners are left off. A change or cut given only in a name is not applied to a line headed by its entry. Residues count along the entry.
UniProt O95863: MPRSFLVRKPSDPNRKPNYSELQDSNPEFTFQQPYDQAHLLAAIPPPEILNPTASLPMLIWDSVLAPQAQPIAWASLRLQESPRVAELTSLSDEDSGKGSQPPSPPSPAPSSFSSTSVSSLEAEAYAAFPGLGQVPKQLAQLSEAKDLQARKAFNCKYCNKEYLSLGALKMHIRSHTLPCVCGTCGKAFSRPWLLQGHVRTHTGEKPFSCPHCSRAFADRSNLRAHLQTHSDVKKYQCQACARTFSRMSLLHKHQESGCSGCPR
Flag-Snail1 C-terminal fragment (Flag-CT: amino acids 152-264): residues 152-264 of O95863

The target in the next test is Flag-Snail1 (UniProt O95863). The description is as above.
Test [2] deals with Flag-Snail1 C-terminal fragment (Flag-CT: amino acids 152-264) (UniProt O95863). Description: co-IP; Flag-Snail1 fragments (Flag-CT 152-264, Flag-NT 1-151) with FBXL8; cell line and precipitating antibody not stated.

Results are given in words; binding and its absence hold for the method and conditions named. Binding seen in cells or lysates may run through a third protein. Some entries that bind do so weakly or less than the wild type. Where a sequence is shown, tags or fusion partners need not be part of it.

On to Flag-Snail1 (from UniProt O95863 1-264), for which, in test [1], the binding result was “binds”.

B1: HA-FBXL8 (full-length human Fbxl8 with HA-tag) (protein, UniProt Q96CD0 1-374)
chain: T1 sequence
As to B1, the binding result (with Flag-Snail1; in test [2]) was “binds” throughout.

The values are drawn from paper PMC11016067.
